Results: article PMC4729872
No constants are given. Whether binding was seen depends on the method and setting. Binding seen in cells or lysates may run through a third protein. Some results given as binding are weak or reduced against the parent protein; the word gives no strength.

Biological target: T1, Pleckstrin homology (PH) domain leucine-rich repeat protein phosphatase 2 (PHLPP2) (mouse (endogenous in primary hepatocytes)) (UniProt Q8BXA7)
T1 sequence: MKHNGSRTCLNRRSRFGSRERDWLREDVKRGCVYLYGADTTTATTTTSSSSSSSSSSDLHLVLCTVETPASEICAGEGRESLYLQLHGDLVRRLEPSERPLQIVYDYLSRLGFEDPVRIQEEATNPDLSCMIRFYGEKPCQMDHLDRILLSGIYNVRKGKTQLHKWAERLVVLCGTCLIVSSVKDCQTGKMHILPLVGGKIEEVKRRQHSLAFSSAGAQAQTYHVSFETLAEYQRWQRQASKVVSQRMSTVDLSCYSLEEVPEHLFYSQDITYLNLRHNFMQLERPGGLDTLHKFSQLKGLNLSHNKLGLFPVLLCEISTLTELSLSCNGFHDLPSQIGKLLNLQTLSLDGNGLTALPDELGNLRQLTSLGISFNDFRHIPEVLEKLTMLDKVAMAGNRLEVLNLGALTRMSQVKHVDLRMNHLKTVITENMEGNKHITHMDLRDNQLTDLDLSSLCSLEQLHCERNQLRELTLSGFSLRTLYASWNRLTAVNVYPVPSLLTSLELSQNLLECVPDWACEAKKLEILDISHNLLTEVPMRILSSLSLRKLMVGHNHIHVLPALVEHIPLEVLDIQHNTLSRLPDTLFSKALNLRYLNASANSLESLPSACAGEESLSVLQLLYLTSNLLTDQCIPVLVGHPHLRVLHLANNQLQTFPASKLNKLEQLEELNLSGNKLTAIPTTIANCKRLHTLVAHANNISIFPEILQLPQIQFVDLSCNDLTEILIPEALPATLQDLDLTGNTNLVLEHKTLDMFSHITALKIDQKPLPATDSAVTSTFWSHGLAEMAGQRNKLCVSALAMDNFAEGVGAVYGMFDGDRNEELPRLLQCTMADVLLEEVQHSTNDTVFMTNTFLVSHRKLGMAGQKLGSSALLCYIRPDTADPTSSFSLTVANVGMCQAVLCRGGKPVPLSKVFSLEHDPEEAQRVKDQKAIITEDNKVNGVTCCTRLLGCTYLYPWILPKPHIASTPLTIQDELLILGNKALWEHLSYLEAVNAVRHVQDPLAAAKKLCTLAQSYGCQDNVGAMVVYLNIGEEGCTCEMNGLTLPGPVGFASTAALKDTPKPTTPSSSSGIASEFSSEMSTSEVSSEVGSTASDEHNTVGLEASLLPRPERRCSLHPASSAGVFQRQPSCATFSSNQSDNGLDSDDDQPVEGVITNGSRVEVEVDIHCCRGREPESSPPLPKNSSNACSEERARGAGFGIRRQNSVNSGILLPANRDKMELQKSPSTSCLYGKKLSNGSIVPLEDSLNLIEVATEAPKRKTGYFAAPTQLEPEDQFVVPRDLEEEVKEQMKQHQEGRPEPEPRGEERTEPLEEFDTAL
Assay: co-IP; anti-PHLPP2 immunoprecipitation from primary hepatocytes and hepatoma cells transduced with Raptor or GFP adenovirus, with or without MG-132

binding: binds
B1: β-TrCP (beta-transducin repeat-containing protein) (protein, UniProt Q3ULA2 1-605)
chain: MDPAEAVLQEKALKFMCSMPRSLWLGCSSLADSMPSLRCLYNPGTGALTAFQNSSEREDCNNGEPPRKIIPEKNSLRQTYNSCARLCINQETVCLTSTAMKTENCVAKAKLANGTSSMIVPKQRKLSASYEKEKELCVKYFEQWSESDQVEFVEHLISQMCHYQHGHINSYLKPMLQRDFITALPARGLDHIAENILSYLDAKSLCAAELVCKEWYRVTSDGMLWKKLIERMVRTDSLWRGLAERRGWGQYLFKNKPPDENAPPNSFYRALYPKIIQDIETIESNWRCGRHSLQRIHCRSETSKGVYCLQYDDQKIVSGLRDNTIKIWDKSTLECKRILTGHTGSVLCLQYDERVIITGSSDSTVRVWDVNAGEMLNTLIHHCEAVLHLRFNNGMMVTCSKDRSIAVWDMASPTDITLRRVLVGHRAAVNVVDFDDKYIVSASGDRTIKVWNTSTCEFVRTLNGHKRGIACLQYRDRLVVSGSSDNTIRLWDIECGACLRVLEGHEELVRCIRFDNKRIVSGAYDGKIKVWDLMAALDPRAPAGTLCLRTLVEHSGRVFRLQFDEFQIVSSSHDDTILIWDFLNDPAAHAEPPRSPSRTYTYISR
